Measured values from patent US10947273B2 (Institut Europeen de Biologie Cellulaire, priority 2015, dated 2021).
The star is where a group is joined. Palmitoyl = CCCCCCCCCCCCCCCC(=O)*

Test: general procedure: Fmoc solid-phase peptide synthesis; Rink-amide resin; HBTU/DIEA
Details: whole synthesis

| Substance | final purity (method not given) | isolated yield |
| --- | --- | --- |
| Chol-Ala-Arg-Pro-Ala-Lys-NH2 (ARPAK; N-cholesteryl, C-amide; BINDING (1)..(1) Chol-Ala; MOD_RES (5)..(5) AMIDATION) | 97% | 50% |
| Palmitoyl-ARPAK-NH2 | 93% | 40% |
| Palmitoyl-AAPAK-NH2 | 99% | 75% |
| Palmitoyl-RPAK-OH | 99% | 60% |
| Palmitoyl-ARAAK-NH2 | 93% | 60% |
